Assay results

The results are deposited in PubChem (AID504749; NCATS, 2011).

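Malaria parasite (P. falciparum) lines kept in red blood cells; parasite DNA is measured by SYBR Green fluorescence after lysis, 72 h after compound addition.
Each compound was titrated across a series from about 0.000037 to 29 µM.
The number is the fitted AC50, the concentration giving a half-maximal change in signal; a lower value means higher potency, whether the curve shows a decrease or an increase.
Calls follow the curve class and fit quality: every row here is inconclusive, covering signal-raising curves and weak, poorly fitted, partial or highest-dose-only inhibition curves.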

Values are in nM.
Every entry below has the call inconclusive.
Only part of the assay is shown, chiefly results filed as inconclusive.
Potencies fitted to partial, single-point or poorly fitting curves are rough.
Some entries filed as inconclusive have a full curve.

compound | condition | fitted potency (nM) | curve as filed
CCC1OC(=O)CC(O)C(C)[C@@H](O[C@@H]2OC(C)[C@H](O[C@@H]3C[C@@](C)(O)C(O)C(C)O3)C(N(C)C)C2O)[C@H](CC=O)CC(C)C(=O)/C=C/C(C)=C/[C@@H]1COC1OC(C)C(O)C(OC)[C@@H]1OC (stereo not given in full) | P93_24 | 1000 | inhibitor, full curve
CCC1OC(=O)CC(O)C(C)[C@@H](O[C@@H]2OC(C)[C@H](O[C@@H]3C[C@@](C)(O)C(O)C(C)O3)C(N(C)C)C2O)[C@H](CC=O)CC(C)C(=O)/C=C/C(C)=C/[C@@H]1COC1OC(C)C(O)C(OC)[C@@H]1OC (stereo not given in full) | SC27B | 3981 | inhibitor, partial curve
CCC1OC(=O)CC(O)C(C)[C@@H](O[C@@H]2OC(C)[C@H](O[C@@H]3C[C@@](C)(O)C(O)C(C)O3)C(N(C)C)C2O)[C@H](CC=O)CC(C)C(=O)/C=C/C(C)=C/[C@@H]1COC1OC(C)C(O)C(OC)[C@@H]1OC (stereo not given in full) | PC26 | 6012 | inhibitor, partial curve
CCC1OC(=O)CC(O)C(C)[C@@H](O[C@@H]2OC(C)[C@H](O[C@@H]3C[C@@](C)(O)C(O)C(C)O3)C(N(C)C)C2O)[C@H](CC=O)CC(C)C(=O)/C=C/C(C)=C/[C@@H]1COC1OC(C)C(O)C(OC)[C@@H]1OC (stereo not given in full) | HB3 | 2818 | inhibitor, partial curve
CCC1OC(=O)CC(O)C(C)[C@@H](O[C@@H]2OC(C)[C@H](O[C@@H]3C[C@@](C)(O)C(O)C(C)O3)C(N(C)C)C2O)[C@H](CC=O)CC(C)C(=O)/C=C/C(C)=C/[C@@H]1COC1OC(C)C(O)C(OC)[C@@H]1OC (stereo not given in full) | CP211 | 1901 | inhibitor, full curve
CCC1OC(=O)CC(O)C(C)[C@@H](O[C@@H]2OC(C)[C@H](O[C@@H]3C[C@@](C)(O)C(O)C(C)O3)C(N(C)C)C2O)[C@H](CC=O)CC(C)C(=O)/C=C/C(C)=C/[C@@H]1COC1OC(C)C(O)C(OC)[C@@H]1OC (stereo not given in full) | CP191 | 631 | inhibitor, full curve, poor fit
CCC1OC(=O)CC(O)C(C)[C@@H](O[C@@H]2OC(C)[C@H](O[C@@H]3C[C@@](C)(O)C(O)C(C)O3)C(N(C)C)C2O)[C@H](CC=O)CC(C)C(=O)/C=C/C(C)=C/[C@@H]1COC1OC(C)C(O)C(OC)[C@@H]1OC (stereo not given in full) | CP203 | 1510 | inhibitor, full curve
CCC1OC(=O)CC(O)C(C)[C@@H](O[C@@H]2OC(C)[C@H](O[C@@H]3C[C@@](C)(O)C(O)C(C)O3)C(N(C)C)C2O)[C@H](CC=O)CC(C)C(=O)/C=C/C(C)=C/[C@@H]1COC1OC(C)C(O)C(OC)[C@@H]1OC (stereo not given in full) | CP268 | 1069 | inhibitor, full curve
CCC1OC(=O)CC(O)C(C)[C@@H](O[C@@H]2OC(C)[C@H](O[C@@H]3C[C@@](C)(O)C(O)C(C)O3)C(N(C)C)C2O)[C@H](CC=O)CC(C)C(=O)/C=C/C(C)=C/[C@@H]1COC1OC(C)C(O)C(OC)[C@@H]1OC (stereo not given in full) | CP215 | 952.8 | inhibitor, full curve
CCOP(=O)(OCC)O/C(=C/Cl)c1ccc(Cl)cc1Cl | P93_24 | 10000 | inhibitor, single point
CCOP(=O)(OCC)O/C(=C/Cl)c1ccc(Cl)cc1Cl | CP260 | 12589 | inhibitor, single point
CCOP(=O)(OCC)O/C(=C/Cl)c1ccc(Cl)cc1Cl | CP194 | 10690 | inhibitor, single point
CCOP(=O)(OCC)O/C(=C/Cl)c1ccc(Cl)cc1Cl | AS120 | 10000 | inhibitor, single point
CCOP(=O)(OCC)O/C(=C/Cl)c1ccc(Cl)cc1Cl | CP185 | 281.8 | inhibitor, single point
CCOP(=O)(OCC)O/C(=C/Cl)c1ccc(Cl)cc1Cl | CP215 | 11995 | inhibitor, partial curve
CCOP(=O)(OCC)O/C(=C/Cl)c1ccc(Cl)cc1Cl | SC27B | 17782 | inhibitor, single point
CCOP(=O)(OCC)O/C(=C/Cl)c1ccc(Cl)cc1Cl | CP291 | 13459 | inhibitor, single point
CCOP(=O)(OCC)O/C(=C/Cl)c1ccc(Cl)cc1Cl | 7G8 | 12589 | inhibitor, partial curve
CCOP(=O)(OCC)O/C(=C/Cl)c1ccc(Cl)cc1Cl | P94_40 | 17782 | inhibitor, single point
CCOP(=O)(OCC)O/C(=C/Cl)c1ccc(Cl)cc1Cl | CP203 | 15101 | inhibitor, single point
CCOP(=O)(OCC)O/C(=C/Cl)c1ccc(Cl)cc1Cl | CP211 | 16944 | inhibitor, single point
CSc1nc2cc(Oc3cccc(Cl)c3Cl)c(Cl)cc2[nH]1 | CP268 | 16944 | inhibitor, partial curve, poor fit
CSc1nc2cc(Oc3cccc(Cl)c3Cl)c(Cl)cc2[nH]1 | CP315 | 16944 | inhibitor, single point
CSc1nc2cc(Oc3cccc(Cl)c3Cl)c(Cl)cc2[nH]1 | CP192 | 13459 | inhibitor, single point
CSc1nc2cc(Oc3cccc(Cl)c3Cl)c(Cl)cc2[nH]1 | PAD | 10000 | inhibitor, single point
CSc1nc2cc(Oc3cccc(Cl)c3Cl)c(Cl)cc2[nH]1 | FAB9 | 10000 | inhibitor, single point
CSc1nc2cc(Oc3cccc(Cl)c3Cl)c(Cl)cc2[nH]1 | C2A | 10000 | inhibitor, single point
CSc1nc2cc(Oc3cccc(Cl)c3Cl)c(Cl)cc2[nH]1 | 3D7 | 10000 | inhibitor, single point
CSc1nc2cc(Oc3cccc(Cl)c3Cl)c(Cl)cc2[nH]1 | JCK | 12589 | inhibitor, single point
O=C1CCc2cc(OCCCCc3nnnn3C3CCCCC3)ccc2N1 | TAB165 | 2818 | inhibitor, single point
O=C1CCc2cc(OCCCCc3nnnn3C3CCCCC3)ccc2N1 | CP217 | 3548 | inhibitor, single point
O=C1CCc2cc(OCCCCc3nnnn3C3CCCCC3)ccc2N1 | SC27B | 3548 | inhibitor, single point
O=C1CCc2cc(OCCCCc3nnnn3C3CCCCC3)ccc2N1 | FAB9 | 2512 | inhibitor, single point
O=C1CCc2cc(OCCCCc3nnnn3C3CCCCC3)ccc2N1 | PC15 | 3548 | inhibitor, single point
O=C1CCc2cc(OCCCCc3nnnn3C3CCCCC3)ccc2N1 | CP250 | 3548 | inhibitor, single point
O=C1CCc2cc(OCCCCc3nnnn3C3CCCCC3)ccc2N1 | CP252 | 3981 | inhibitor, single point

For reference, 4 entries once more:

{"compound": "CSc1nc2cc(Oc3cccc(Cl)c3Cl)c(Cl)cc2[nH]1", "condition": "C2A", "fitted potency (nM)": "10000", "curve as filed": "inhibitor, single point"}
{"compound": "CCOP(=O)(OCC)O/C(=C/Cl)c1ccc(Cl)cc1Cl", "condition": "CP291", "fitted potency (nM)": "13459", "curve as filed": "inhibitor, single point"}
{"compound": "CCOP(=O)(OCC)O/C(=C/Cl)c1ccc(Cl)cc1Cl", "condition": "CP215", "fitted potency (nM)": "11995", "curve as filed": "inhibitor, partial curve"}
{"compound": "CCOP(=O)(OCC)O/C(=C/Cl)c1ccc(Cl)cc1Cl", "condition": "CP203", "fitted potency (nM)": "15101", "curve as filed": "inhibitor, single point"}